Source: PubChem BioAssay AID493014 (National Center for Advancing Translational Sciences (NCATS), 2011)
The other results are listed elsewhere or left out. Shown are side measurements of this screen, not its main read-out; they come without a call. The list favours compounds with an active or inconclusive main result. Words in brackets tell the shape of the fitted curve; partial curves, single points and poor fits give uncertain potencies.

Experiment: qHTS Assay to Find Inhibitors of Chronic Active B-Cell Receptor Signaling
Conditions: ABC-DLBCL IkBa-CBG/CBR reporter, luminescence ratio (green luciferase fused to IkBa over red control in TMD8 lymphoma cells), 4 h
Method in brief: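 TMD8 human ABC-DLBCL cells with doxycycline-inducible IκBα–green luciferase fusion and unfused red luciferase, in 0.5% FBS medium; compounds up to 46 uM, 4 h at 37C. Green/red luminescence ratio, filter-overlap corrected, fitted to concentration-response curves.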

[1] = measured here: CBR red luminescence, cell number
[2] = measured here: IkBa-CBG green luminescence

| SMILES | AC50 [1] | AC50 [2] |
| --- | --- | --- |
| CC1=CCCC(C)(C)C1/C=C/C(C)=N/NC(=O)c1ccncc1 (centres undefined) | 35.5 µM [falling, single point] | – |
| O=C(NCc1ccccc1Cl)c1ccc2nnsc2c1 | 35.5 µM [falling, single point] | – |
| Cc1ccc(NC(=O)C2CCN(S(=O)(=O)c3cc([N+](=O)[O-])ccc3Cl)CC2)nc1 | 23.1 µM [falling, single point] | – |
| CCOC(=O)c1ccc(N=C2SC(C(=O)NC)CC(=O)N2CCc2ccccc2)cc1 (centres undefined) | 20 µM [falling, partial curve, poor fit] | – |
| CN(CC(=O)Nc1ccc(F)cc1)S(=O)(=O)c1ccc2c(c1)c(=O)n(C)c(=O)n2C | 20 µM [falling, partial curve, poor fit] | – |
| CCn1cc(Br)c(C(=O)NN)n1 | 3.55 µM [falling, partial curve, poor fit] | – |
| CCOC(=O)c1n[nH]n2c1nc(=S)c1ccccc12 | 14.1 µM [falling, single point] | – |
| N#C/C(=C\c1cccnc1)c1nc2ccccc2[nH]1 | 3.98 µM [falling, partial curve] | – |
| COc1ccc(Cc2nc3ccc(C(=O)N4CCOCC4)cc3o2)cc1 | 8.91 µM [rising, partial curve] | – |
| [O-][n+]1onc2c3cc(-c4ccccc4)nnc3ccc21 | 31.6 µM [rising, single point] | – |
| O=c1oc2ccccc2cc1-c1nnc(NCc2ccco2)s1 | 13 µM [falling, single point] | – |
| COc1cc(/C=C/C(=O)c2ccc3c(c2)OCO3)cc(OC)c1OC | 25.9 µM [falling, partial curve] | – |
| Cc1ccc(SCCNC(=O)c2ccccc2C)cc1 | 29.1 µM [falling, single point] | – |
| Cc1cnc([N+](=O)[O-])n1CCOC(=O)NC(=O)c1ccc(C(F)(F)F)cc1 | 35.5 µM [rising, partial curve, poor fit] | – |
| COc1ccc(C(=O)Oc2ccc3oc(=O)sc3c2)cc1 | 10.3 µM [falling, partial curve, poor fit] | – |
| COc1cccc(C(=O)NCCS(=O)(=O)N2CCOCC2)c1 | 8.2 µM [falling, partial curve, poor fit] | – |
| O=S(=O)(Nc1nc2ccccc2nc1Cl)c1ccc2ccccc2c1 | 29.1 µM [falling, single point] | – |
| CCOC(=O)C(C)n1cnc2c(nnn2Cc2ccc(Cl)cc2)c1=O (centres undefined) | 0.13 µM [rising, full curve, poor fit] | – |
| CC(C)NCCCCOc1ccc(Br)cc1Cl | – | 12.6 µM [rising, partial curve, poor fit] |
| COc1ccc(OC)c(C2Nc3c(Cl)ccc(C(=O)O)c3C3C=CCC32)c1 (centres undefined) | 5.62 µM [falling, single point] | – |
| COc1ccc(NS(=O)(=O)c2ccc(NC(=S)NC(=O)/C=C/c3ccccc3)cc2)nn1 | 14.6 µM [falling, partial curve] | – |

| SMILES | AC50 [1] | AC50 [2] |
| --- | --- | --- |
| CCCN1CCC(=NNc2ccc(S(N)(=O)=O)cc2[N+](=O)[O-])CC1 | 11.2 µM [falling, partial curve] | – |
| O=C(c1cccc(S(=O)(=O)N2CCOCC2)c1)N(CCc1ccccc1)Cc1ccccc1 | 14.6 µM [falling, single point] | – |
| Cc1cccc(C2C3=C(Nc4[nH]n(-c5ccccc5)c(=O)c42)c2ccccc2C3=O)c1 (centres undefined) | 7.31 µM [rising, partial curve, poor fit] | 18.4 µM [rising, partial curve, poor fit] |
| O=C(N/N=C/c1ccccn1)c1cc(Br)ccc1O | 10 µM [falling, partial curve, poor fit] | 35.5 µM [falling, single point] |
| NC(=O)c1cc2c(s1)-c1cc(Cl)ccc1SC2 | 1.41 µM [falling, partial curve, poor fit] | – |
| COCCN(Cc1ccccc1)C(=O)c1c(C)nn(-c2ccccc2)c1C | 3.55 µM [rising, partial curve, poor fit] | – |
| O=C(/C=C/c1ccc(F)cc1)NC(=S)NNC(=O)c1cccnc1 | 7.31 µM [falling, partial curve] | – |
| COc1ccc(C(CC(=O)c2ccc(C)cc2)C(C#N)C#N)cc1OC (centres undefined) | 23.1 µM [falling, single point] | 32.6 µM [rising, partial curve, poor fit] |
| CCN(CC)c1ccc(C(=S)NC2CCCCC2)cc1 | 0.447 µM [rising, full curve, poor fit] | – |
| COc1ccc(C(=O)OCC(=O)Nc2ccc(F)c(F)c2)cc1OC | 23.1 µM [rising, single point] | 16.4 µM [falling, partial curve, poor fit] |
| S=c1nc(-c2ccccc2)n(CCN2CCOCC2)c2c1CCCC2 | 20 µM [falling, partial curve, poor fit] | – |
| O=C(Nc1cccc(F)c1)C1CCCN1S(=O)(=O)c1cccc2cccnc12 (centres undefined) | 1.84 µM [rising, single point] | – |
| CCOc1ccccc1N1CC(C(=O)Nc2ccc(C(=O)O)cc2)CC1=O (centres undefined) | 0.651 µM [falling, full curve, poor fit] | 0.92 µM [rising, full curve, poor fit] |
| O=C(Cn1c(NCCCO)nc2ccccc21)c1ccc(Cl)cc1 | 4.47 µM [falling, partial curve, poor fit] | – |
| CCOC(=O)N1CCC(NC(=O)CSCc2nc(-c3sccc3C)oc2C)CC1 | 2.06 µM [rising, single point] | – |
| Cc1cccc(C(C)Nc2ccc([N+](=O)[O-])cn2)c1 (centres undefined) | 3.55 µM [rising, single point] | – |
| COc1cc(/C=N/NC(=O)c2ccc(Cl)cc2)ccc1OCC(=O)N1CC(C)OC(C)C1 (centres undefined) | 11.2 µM [falling, partial curve, poor fit] | 14.1 µM [rising, partial curve, poor fit] |
| Cc1cc(C)nc(Sc2nc(C)nc3c2oc2ccccc23)n1 | 35.5 µM [falling, single point] | – |
| Cc1cccc(OCC(=O)Nc2ccc(C(=O)O)cc2NC(=O)COc2cccc(C)c2)c1 | 8.91 µM [falling, partial curve, poor fit] | – |
| Nc1ccc2oc(-c3cccc4ccccc34)nc2c1 | 15.8 µM [falling, single point] | – |
| Cc1ccc(NC(=O)Cn2cc(C(=O)C3CC3)c3ccccc32)c(C)c1 | 6.31 µM [rising, single point] | – |

Molecules from the list above with a COOH group, in the order listed:

| SMILES | AC50 [1] | AC50 [2] |
| --- | --- | --- |
| COc1ccc(OC)c(C2Nc3c(Cl)ccc(C(=O)O)c3C3C=CCC32)c1 (centres undefined) | 5.62 µM [falling, single point] | – |
| CCOc1ccccc1N1CC(C(=O)Nc2ccc(C(=O)O)cc2)CC1=O (centres undefined) | 0.651 µM [falling, full curve, poor fit] | 0.92 µM [rising, full curve, poor fit] |
| Cc1cccc(OCC(=O)Nc2ccc(C(=O)O)cc2NC(=O)COc2cccc(C)c2)c1 | 8.91 µM [falling, partial curve, poor fit] | – |

Additional structures follow.

| SMILES | AC50 [1] | AC50 [2] |
| --- | --- | --- |
| COc1ccc(C2CC(c3cccs3)=NN2C(=O)CN2CCCCC2)cc1 (centres undefined) | 20 µM [rising, partial curve, poor fit] | – |
| CC(C)(C)NC(=O)Cn1c(SCC(=O)Nc2nccs2)nc2ccccc21 | 1.84 µM [falling, partial curve, poor fit] | – |
| Cc1ccc(C(=O)NC(=S)NNC(=O)CC#N)cc1 | 14.1 µM [rising, single point] | – |
| CCOC(=O)Nc1nnc(CCc2ccccc2)s1 | 8.91 µM [rising, partial curve] | – |
| c1ccc(SCCN2CCc3ccccc3C2)cc1 | 13 µM [rising, partial curve, poor fit] | – |
| O=C(Nc1ccccc1O)c1cc(S(=O)(=O)N2CCOCC2)c(Cl)cc1Cl | 17.8 µM [falling, single point] | – |
| COc1ccc(NC(=O)c2cc3c(COC(C)=O)cnc(C)c3oc2=Nc2cccc(C(=O)O)c2)c(OC)c1 | 17.8 µM [rising, single point] | – |
| Clc1ccc(NCc2ccsc2)cc1 | 11.2 µM [rising, partial curve, poor fit] | – |
| O=C(/C=C/c1ccccc1)c1c[nH]c2ccccc12 | 10 µM [falling, partial curve, poor fit] | – |
| Cc1csc(Nc2ccc(Cl)cc2)[n+]1-c1ccc(Cl)cc1 | 7.08 µM [rising, partial curve] | – |
| O=C(Nc1cccc(F)c1)N(Cc1ccc(Cl)cc1)CC(O)C(F)(F)F (centres undefined) | 29.1 µM [falling, single point] | 32.6 µM [rising, partial curve, poor fit] |
| COc1ccc(-c2csc(Cc3nc(O)cs3)n2)cc1 | 11.2 µM [rising, single point] | – |
| O=C(/C=C/c1ccc(F)cc1)Nc1nc2ccccc2[nH]1 | 2.59 µM [falling, full curve] | 23.1 µM [rising, partial curve, poor fit] |
| CCCN(CC(=O)Nc1ccccc1OC)C(=O)c1cc(S(=O)(=O)NCc2ccccc2)ccc1C | 1.58 µM [falling, partial curve, poor fit] | – |
| O=C(Nc1cccc2ccccc12)c1ccc([N+](=O)[O-])o1 | 11.2 µM [falling, partial curve, poor fit] | – |
| CCc1ccc(C(=O)CN2C(=O)C(C)N(c3ccc(C)cc3)C2=O)cc1 (centres undefined) | 25.9 µM [rising, single point] | – |
| S=C(Nc1ccc(Cl)cc1)NC1CC2CCCC(C1)N2C1CC1 (centres undefined) | 6.51 µM [rising, single point] | – |
| COc1ccc(NC(=O)/C(C#N)=C\c2cc(OC)c(OCc3ccc(C(=O)O)cc3)cc2Br)cc1 | 0.794 µM [falling, full curve, poor fit] | – |
| Cc1ccc(CNC(=O)C2CC(c3ccccc3F)=NO2)cc1 (centres undefined) | 3.98 µM [rising, full curve, poor fit] | – |
